# Measured values reported in PubChem BioAssay AID1487 (National Center for Advancing Translational Sciences (NCATS), 2009).
# About 25 (0.01%) of roughly 200,000 compounds were called active. The inconclusive results got no clear call from the source; some entries with a clear call stand among them for comparison. The call rests on the fitted dose curve; in most records, active means well fitted inhibition curve with a large enough effect in the signal ratio, with a control signal flat (not every such curve was filed as active); inconclusive means small, poorly fitted or top-dose-only effect, or effect the other way, or a change in a side signal; inactive means flat fitted curve, though single readings scatter; the % refers to the signal ratio. Where the call is inconclusive, the potency comes from a doubtful curve fit.
# Test: qHTS Assay for Modulators of Lamin A Splicing
# Details: HeLa LMNA splicing GFP/RFP minigene ratio, 48 h; ratio change, negative = inhibition: at 46.1 µM (top of the series) unless noted
# How it was run: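 Read-out is the ratio of GFP to DsRed2 object intensity, acquired by 488 nm laser-scanning cytometry on HeLa lamin A-EGFP minigene reporter cells. Compound incubation 48 hrs at 37 °C in Opti-MEM with 2% FBS; DMSO 0.5% final.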
# On the % scale 0 is the no-effect control and ±100 the full control effect; potency means the concentration at half of the fitted maximal effect.
SMILES,"ratio change, negative = inhibition",Potency
CCn1cc(C(=O)NCc2cccnc2)c(=O)c2cc(F)c(N3CCN(C(=O)c4ccco4)CC3)cc21,inconclusive: -33.1%,
O=C(NCc1ccccc1)C1c2ccccc2Oc2ccccc21,,"inconclusive: 0.794 µM [activator, full curve, poor fit]"
CC(C)(C)c1[nH]nc2c1C(c1ccc(OC(=O)c3ccco3)cc1)C(C#N)=C(N)O2 (stereo not drawn),inactive,
Cc1ccsc1/C=C1\SC(=S)N(CC2CCCO2)C1=O (stereo not drawn),inconclusive: 3.55% [at 46 µM],
Fc1ccc(F)c(NC(=S)NCCc2ccccc2)c1,,"inconclusive: 15.8 µM [falling, partial curve, poor fit]"
OCCC1CN(Cc2ccon2)CCN1Cc1ccccc1 (stereo not drawn),inconclusive: -6.21% [at 46 µM],
Cc1ccc(OC(=O)Nc2ccccc2)cc1,inactive,
CCN(CC)S(=O)(=O)c1cc(C(=O)NC2CCCCC2)ccc1C,inconclusive: 9.52%,
CC(=O)c1ccc(N2CCN(C(C)C(=O)NC3CCCc4ccccc43)CC2)cc1 (stereo not drawn),inconclusive: -34.8%,
COc1ccc(C2(C(=O)Nc3ccc(S(N)(=O)=O)cc3)CCCC2)cc1,inconclusive: -2.18% [at 46 µM],
Cc1ccc(S(=O)(=O)N2CCCC(CCC(=O)NCc3ccccc3F)C2)s1 (stereo not drawn),inconclusive: -11.7% [at 46 µM],
Cc1ccccc1CNS(=O)(=O)c1ccc2c(c1)OCCO2,inactive,
Cc1ccc(CN(C(=O)COc2cccc([N+](=O)[O-])c2)c2ccccn2)cc1,inconclusive: 18.1% [at 46 µM],
COCCn1c(C)cc(/C=C2/NC(=O)N(c3ccc(Cl)cc3)C2=O)c1C,inconclusive: 0.148%,
Cc1noc(NS(=O)(=O)c2ccc(NC(=O)c3cnc4scc(C)n4c3=O)cc2)c1C,inactive,
COc1ccc2cc(Br)ccc2c1CC(=O)NCC1CCCO1 (stereo not drawn),inconclusive: -29.6% [at 46 µM],
O=C(NCc1nnc(SCC(=O)N2CCCc3ccccc32)o1)c1ccco1,inconclusive: 22.3% [at 9.22 µM],
Cc1ccccc1C(=O)Nc1cccc(C(=O)OCc2cc(=O)n3c4c(sc3n2)CCCC4)c1,,"inconclusive: 2.82 µM [falling, full curve, poor fit]"
CCCCCC(=O)NNC(=S)NC(=O)c1cccc([N+](=O)[O-])c1,inconclusive: -26.4%,
Cc1ccc(NC(=O)CCl)cc1S(=O)(=O)N1CCCCCC1,inconclusive: 73.2% [at 46 µM],
COCCSc1nnc(NC(=O)Cc2ccc(OC)c(OC)c2)s1,inconclusive: 15.5% [at 46 µM],
CCOc1ccc(C(CC(=O)O)NC(=O)c2cccs2)cc1 (stereo not drawn),inconclusive: -8.58%,
CC(=O)Nc1ncc(Cc2cccc(Cl)c2)s1,,"inconclusive: 2 µM [activator, full curve, poor fit]"
Cc1cc(C)nc(NC(=O)/C=C/c2ccccc2Cl)n1,inactive,
O=C(Nc1ccccc1)c1ccc(-c2ccccc2C(F)(F)F)o1,,"inconclusive: 17.8 µM [fluorescent, single point]"
O=C(CSc1nnc(-c2cccnc2)s1)Nc1cccc(C(=O)O)c1,inactive,
N/C(=N\OC(=O)c1ccco1)c1cccc(Br)c1,inactive,

SMILES,"ratio change, negative = inhibition",Potency
Cc1cccc(Nc2nnc(SCC(=O)NC3CCCc4ccccc43)s2)c1 (stereo not drawn),inconclusive: -34.9%,
CCCc1cc(-c2n[nH]c(=S)n2CC(C)C)cs1,,"inconclusive: 35.5 µM [falling, single point]"
COc1cccc(C(=O)N(Cc2cc3cc(C)ccc3[nH]c2=O)CC2CCCO2)c1 (stereo not drawn),inconclusive: -2.41%,
O=C(CCl)NCc1c(Cl)cccc1-n1cccc1,,"inconclusive: 35.5 µM [cytotoxic, single point]"
Cc1oc2c(cc(NS(=O)(=O)c3ccc4c5c(cccc35)C(=O)N4)c3ccccc32)c1C(=O)OC(C)C,inconclusive: -3.32%,
Cc1ccccc1N(C(=O)c1csnn1)C(C(=O)NC(C)(C)C)c1cccs1 (stereo not drawn),inconclusive: -33.5% [at 46 µM],
CCCc1nc(SCC(=O)Nc2cc(C)on2)c2ccccc2n1,inconclusive: 16.1%,
O=C(CN1CCN(CC(=O)Nc2ccccc2Cl)CC1)Nc1ccc2c(c1)OCCO2,inactive,
COc1ccc(O)c(/C=N/NC(=O)c2c(C)nnn2-c2nonc2N)c1,inconclusive: -3.63% [at 46 µM],
CCOC(=O)c1c(NC(=O)c2ccc(S(=O)(=O)N(CCOC)CCOC)cc2)sc2c1CC(C)(C)NC2(C)C,inconclusive: -21.9% [at 46 µM],
O=c1c(=O)n(-c2cccc(Cl)c2)ccn1Cc1cccc(F)c1,inactive,
COCCCN(CCCN)Cc1ccco1,inactive,
CCOC(=O)c1c(/N=C/C2C(=O)CCCC2=O)sc(C)c1C,inactive,
CN1CCN(C(=S)c2ccc(N(C)C)cc2)CC1,inactive,
CC(=O)c1c(N2CCOCC2)[nH]c(-c2ccccc2)nc1=S,inconclusive: 2.26%,
N#Cc1ccc(NC(=O)Nc2cccc(C#N)c2)cc1,inconclusive: 0.182% [at 46 µM],
CCOC(=O)c1c(C)[nH]c(C)c1C(=O)CSc1nc2ccccc2c(=O)n1-c1ccc(C)cc1,,"inconclusive: 25.1 µM [fluorescent, partial curve, poor fit]"
NC(=O)c1ncc(C(F)(F)F)cc1Cl,inactive,
Cn1c(Cl)cnc1C1CC(=O)c2cc(Cl)ccc2O1 (stereo not drawn),inconclusive: 132%,
CC(C)CCNC(=O)c1ccc2c(c1)NC(=O)C(CS(=O)(=O)Cc1cccc(Br)c1)N2 (stereo not drawn),,"inconclusive: 35.5 µM [cytotoxic, single point]"
CCOC(=O)CC1C(=O)NCCN1C(=O)c1cc2c(=O)n3cccc(C)c3nc2s1 (stereo not drawn),inactive,
O=C(CSc1nnc(Cc2ccccc2)n1-c1ccc(F)cc1)N1CCOCC1,inactive,
CCOC(=O)C1CCCN(c2ccc(NC(=O)c3snc4c(=O)[nH]cnc34)cc2)C1 (stereo not drawn),inactive,
O=C(Nc1ccc(Cl)cn1)c1ccc2ccccc2n1,inactive,
CCCCn1c(CN2CCN(C(=O)c3ccco3)CC2)nc2c1c(=O)n(C)c(=O)n2C,inactive,
COC(=O)c1cc(NC(=O)c2ccc(Cn3cc(Cl)cn3)o2)cc(C(=O)OC)c1,inactive,

# Single records (already shown):
# O=c1c(=O)n(-c2cccc(Cl)c2)ccn1Cc1cccc(F)c1 as listed: ratio change, negative = inhibition: inactive
# COc1ccc(O)c(/C=N/NC(=O)c2c(C)nnn2-c2nonc2N)c1 as listed: ratio change, negative = inhibition: inconclusive: -3.63% [at 46 µM]
# CCOC(=O)CC1C(=O)NCCN1C(=O)c1cc2c(=O)n3cccc(C)c3nc2s1 (stereo not drawn) as listed: ratio change, negative = inhibition: inactive
